Data published in the supplement of paper PMC11732987, “Enantioselective OTUD7B fragment discovery through chemoproteomics screening and high-throughput optimisation” (Communications Chemistry, 2025).
Some of the results follow. The data scatter; read single values as rough.

Sequences of proteins named here, by UniProt entry; tags and fusion partners are left off. A change or cut given only in a name is not applied to a line headed by its entry. Residues count along the entry.
UniProt Q96N11, whole entry, looked up: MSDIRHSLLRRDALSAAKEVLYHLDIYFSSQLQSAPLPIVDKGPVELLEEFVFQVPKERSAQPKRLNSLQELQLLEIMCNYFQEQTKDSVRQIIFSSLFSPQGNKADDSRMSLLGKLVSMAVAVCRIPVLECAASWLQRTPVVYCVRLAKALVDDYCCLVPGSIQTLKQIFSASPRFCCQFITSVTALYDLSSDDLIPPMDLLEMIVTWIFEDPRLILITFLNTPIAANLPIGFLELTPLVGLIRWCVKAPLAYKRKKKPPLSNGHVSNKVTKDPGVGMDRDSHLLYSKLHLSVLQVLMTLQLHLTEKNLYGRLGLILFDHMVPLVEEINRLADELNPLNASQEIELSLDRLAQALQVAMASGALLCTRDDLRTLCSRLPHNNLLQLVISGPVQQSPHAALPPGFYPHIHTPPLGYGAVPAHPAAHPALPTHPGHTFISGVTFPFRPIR
UniProt Q86YS7, 816-844: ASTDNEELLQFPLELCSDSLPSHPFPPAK
UniProt Q9BSJ5: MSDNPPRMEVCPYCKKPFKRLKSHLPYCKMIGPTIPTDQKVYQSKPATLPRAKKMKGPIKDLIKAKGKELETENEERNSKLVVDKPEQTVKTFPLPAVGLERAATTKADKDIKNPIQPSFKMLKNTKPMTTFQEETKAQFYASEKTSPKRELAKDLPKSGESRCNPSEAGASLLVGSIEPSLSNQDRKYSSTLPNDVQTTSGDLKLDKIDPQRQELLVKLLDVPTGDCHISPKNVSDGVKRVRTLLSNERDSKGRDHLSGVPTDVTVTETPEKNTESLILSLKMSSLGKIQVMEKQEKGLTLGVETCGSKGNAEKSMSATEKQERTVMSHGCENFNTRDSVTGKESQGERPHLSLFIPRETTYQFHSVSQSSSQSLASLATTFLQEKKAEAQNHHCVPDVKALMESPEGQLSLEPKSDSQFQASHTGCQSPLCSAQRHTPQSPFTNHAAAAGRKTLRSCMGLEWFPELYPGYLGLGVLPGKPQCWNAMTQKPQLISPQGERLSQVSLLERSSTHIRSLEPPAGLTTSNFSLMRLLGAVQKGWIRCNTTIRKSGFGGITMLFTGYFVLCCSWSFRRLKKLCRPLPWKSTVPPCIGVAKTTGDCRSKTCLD
UniProt O75155: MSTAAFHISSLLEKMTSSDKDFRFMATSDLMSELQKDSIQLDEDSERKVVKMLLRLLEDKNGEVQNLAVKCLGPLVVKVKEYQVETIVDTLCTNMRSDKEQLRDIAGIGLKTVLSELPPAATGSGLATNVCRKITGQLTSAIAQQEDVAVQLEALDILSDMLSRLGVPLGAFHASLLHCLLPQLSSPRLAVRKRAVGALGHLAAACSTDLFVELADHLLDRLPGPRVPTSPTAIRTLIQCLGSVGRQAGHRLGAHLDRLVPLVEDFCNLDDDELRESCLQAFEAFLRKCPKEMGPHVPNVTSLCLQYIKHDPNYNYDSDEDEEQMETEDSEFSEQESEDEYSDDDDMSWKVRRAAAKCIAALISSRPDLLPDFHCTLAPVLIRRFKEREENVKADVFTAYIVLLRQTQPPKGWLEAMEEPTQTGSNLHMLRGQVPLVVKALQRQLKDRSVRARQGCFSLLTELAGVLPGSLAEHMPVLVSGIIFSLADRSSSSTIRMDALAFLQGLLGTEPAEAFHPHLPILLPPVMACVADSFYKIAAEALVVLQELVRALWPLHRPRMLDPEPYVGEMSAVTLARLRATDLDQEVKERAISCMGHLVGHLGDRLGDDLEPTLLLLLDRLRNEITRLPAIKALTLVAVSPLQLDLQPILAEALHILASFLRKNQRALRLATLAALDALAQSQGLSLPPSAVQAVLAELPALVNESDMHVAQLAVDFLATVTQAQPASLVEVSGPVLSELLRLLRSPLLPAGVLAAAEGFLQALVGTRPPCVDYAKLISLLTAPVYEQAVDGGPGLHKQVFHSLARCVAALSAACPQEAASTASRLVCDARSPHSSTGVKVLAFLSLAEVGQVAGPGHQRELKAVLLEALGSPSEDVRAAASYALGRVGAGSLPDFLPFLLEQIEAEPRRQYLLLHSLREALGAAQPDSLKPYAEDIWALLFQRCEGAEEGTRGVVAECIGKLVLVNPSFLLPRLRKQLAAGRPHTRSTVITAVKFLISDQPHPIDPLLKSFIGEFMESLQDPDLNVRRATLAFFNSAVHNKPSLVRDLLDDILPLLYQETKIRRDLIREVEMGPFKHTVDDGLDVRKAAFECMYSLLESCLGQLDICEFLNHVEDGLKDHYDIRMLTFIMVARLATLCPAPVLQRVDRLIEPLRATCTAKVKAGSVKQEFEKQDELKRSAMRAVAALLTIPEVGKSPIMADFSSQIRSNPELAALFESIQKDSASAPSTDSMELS
UniProt Q96LT7: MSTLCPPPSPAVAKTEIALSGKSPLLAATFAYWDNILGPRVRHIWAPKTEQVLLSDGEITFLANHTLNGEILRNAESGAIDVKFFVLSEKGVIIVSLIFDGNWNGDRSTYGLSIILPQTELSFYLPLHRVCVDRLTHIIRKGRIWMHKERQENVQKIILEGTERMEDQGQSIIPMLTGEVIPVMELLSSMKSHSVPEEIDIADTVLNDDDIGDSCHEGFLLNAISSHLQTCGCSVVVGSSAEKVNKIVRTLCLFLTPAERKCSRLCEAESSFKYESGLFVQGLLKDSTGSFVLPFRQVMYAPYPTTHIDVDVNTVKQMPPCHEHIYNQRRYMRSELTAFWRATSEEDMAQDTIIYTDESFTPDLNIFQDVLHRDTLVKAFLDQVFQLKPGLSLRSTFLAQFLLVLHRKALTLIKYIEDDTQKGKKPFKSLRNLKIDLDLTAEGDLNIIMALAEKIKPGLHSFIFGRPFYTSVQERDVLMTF
UniProt Q7Z569: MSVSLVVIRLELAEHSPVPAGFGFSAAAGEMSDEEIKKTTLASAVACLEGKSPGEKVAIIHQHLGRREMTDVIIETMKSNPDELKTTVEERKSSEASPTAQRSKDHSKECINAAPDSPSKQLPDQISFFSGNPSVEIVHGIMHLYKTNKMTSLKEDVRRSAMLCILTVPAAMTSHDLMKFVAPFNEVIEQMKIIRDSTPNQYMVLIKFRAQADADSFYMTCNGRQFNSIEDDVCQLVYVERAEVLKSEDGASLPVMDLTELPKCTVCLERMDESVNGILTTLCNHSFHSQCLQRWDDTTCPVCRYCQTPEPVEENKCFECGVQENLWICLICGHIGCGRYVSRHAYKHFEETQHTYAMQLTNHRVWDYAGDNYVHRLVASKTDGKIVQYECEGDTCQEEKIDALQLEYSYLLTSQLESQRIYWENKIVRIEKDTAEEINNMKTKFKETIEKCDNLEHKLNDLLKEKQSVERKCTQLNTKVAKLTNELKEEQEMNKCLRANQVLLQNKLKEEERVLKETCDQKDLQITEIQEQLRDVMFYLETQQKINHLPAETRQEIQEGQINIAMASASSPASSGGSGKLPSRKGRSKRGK
UniProt O75808, 250-272: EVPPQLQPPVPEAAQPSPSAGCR
UniProt Q96B45: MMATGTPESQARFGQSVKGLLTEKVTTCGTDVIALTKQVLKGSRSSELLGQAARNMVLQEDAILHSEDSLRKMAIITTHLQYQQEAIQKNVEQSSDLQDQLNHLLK
UniProt Q8N999, whole entry, looked up: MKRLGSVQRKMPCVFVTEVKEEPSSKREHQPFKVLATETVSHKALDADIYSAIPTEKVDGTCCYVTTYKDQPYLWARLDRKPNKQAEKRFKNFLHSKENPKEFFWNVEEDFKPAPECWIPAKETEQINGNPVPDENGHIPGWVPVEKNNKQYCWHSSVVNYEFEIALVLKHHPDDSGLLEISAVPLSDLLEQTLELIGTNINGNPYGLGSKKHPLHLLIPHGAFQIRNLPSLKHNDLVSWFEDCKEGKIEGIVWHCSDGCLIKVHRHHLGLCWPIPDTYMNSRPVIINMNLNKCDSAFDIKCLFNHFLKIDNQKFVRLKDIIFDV
UniProt Q6ZRI6: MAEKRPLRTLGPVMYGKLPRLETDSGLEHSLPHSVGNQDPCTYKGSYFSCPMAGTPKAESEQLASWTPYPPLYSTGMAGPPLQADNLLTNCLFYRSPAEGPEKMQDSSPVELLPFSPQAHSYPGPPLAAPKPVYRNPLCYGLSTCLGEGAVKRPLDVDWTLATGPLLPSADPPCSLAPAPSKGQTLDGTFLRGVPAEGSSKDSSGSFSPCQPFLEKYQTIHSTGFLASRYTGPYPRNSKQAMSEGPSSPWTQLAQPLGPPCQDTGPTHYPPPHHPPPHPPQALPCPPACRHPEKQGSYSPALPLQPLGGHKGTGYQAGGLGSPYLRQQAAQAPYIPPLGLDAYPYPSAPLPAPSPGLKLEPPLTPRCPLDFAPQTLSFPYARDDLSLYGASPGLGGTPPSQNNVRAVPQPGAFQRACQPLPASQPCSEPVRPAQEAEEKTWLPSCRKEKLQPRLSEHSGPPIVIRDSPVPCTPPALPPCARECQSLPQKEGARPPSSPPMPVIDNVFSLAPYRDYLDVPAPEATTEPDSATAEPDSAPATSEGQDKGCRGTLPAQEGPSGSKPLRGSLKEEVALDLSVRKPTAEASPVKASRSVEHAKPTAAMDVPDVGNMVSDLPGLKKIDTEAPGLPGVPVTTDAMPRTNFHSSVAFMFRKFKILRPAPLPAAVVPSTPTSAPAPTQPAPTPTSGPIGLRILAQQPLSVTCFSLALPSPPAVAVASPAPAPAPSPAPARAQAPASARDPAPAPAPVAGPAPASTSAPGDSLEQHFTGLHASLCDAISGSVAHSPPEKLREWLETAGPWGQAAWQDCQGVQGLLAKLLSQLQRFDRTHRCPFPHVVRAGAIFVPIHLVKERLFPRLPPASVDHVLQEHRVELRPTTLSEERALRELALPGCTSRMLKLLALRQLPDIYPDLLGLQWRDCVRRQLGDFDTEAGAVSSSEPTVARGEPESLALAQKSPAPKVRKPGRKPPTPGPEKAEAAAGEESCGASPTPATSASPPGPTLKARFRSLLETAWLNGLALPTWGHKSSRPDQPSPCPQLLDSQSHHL
UniProt Q9BX63: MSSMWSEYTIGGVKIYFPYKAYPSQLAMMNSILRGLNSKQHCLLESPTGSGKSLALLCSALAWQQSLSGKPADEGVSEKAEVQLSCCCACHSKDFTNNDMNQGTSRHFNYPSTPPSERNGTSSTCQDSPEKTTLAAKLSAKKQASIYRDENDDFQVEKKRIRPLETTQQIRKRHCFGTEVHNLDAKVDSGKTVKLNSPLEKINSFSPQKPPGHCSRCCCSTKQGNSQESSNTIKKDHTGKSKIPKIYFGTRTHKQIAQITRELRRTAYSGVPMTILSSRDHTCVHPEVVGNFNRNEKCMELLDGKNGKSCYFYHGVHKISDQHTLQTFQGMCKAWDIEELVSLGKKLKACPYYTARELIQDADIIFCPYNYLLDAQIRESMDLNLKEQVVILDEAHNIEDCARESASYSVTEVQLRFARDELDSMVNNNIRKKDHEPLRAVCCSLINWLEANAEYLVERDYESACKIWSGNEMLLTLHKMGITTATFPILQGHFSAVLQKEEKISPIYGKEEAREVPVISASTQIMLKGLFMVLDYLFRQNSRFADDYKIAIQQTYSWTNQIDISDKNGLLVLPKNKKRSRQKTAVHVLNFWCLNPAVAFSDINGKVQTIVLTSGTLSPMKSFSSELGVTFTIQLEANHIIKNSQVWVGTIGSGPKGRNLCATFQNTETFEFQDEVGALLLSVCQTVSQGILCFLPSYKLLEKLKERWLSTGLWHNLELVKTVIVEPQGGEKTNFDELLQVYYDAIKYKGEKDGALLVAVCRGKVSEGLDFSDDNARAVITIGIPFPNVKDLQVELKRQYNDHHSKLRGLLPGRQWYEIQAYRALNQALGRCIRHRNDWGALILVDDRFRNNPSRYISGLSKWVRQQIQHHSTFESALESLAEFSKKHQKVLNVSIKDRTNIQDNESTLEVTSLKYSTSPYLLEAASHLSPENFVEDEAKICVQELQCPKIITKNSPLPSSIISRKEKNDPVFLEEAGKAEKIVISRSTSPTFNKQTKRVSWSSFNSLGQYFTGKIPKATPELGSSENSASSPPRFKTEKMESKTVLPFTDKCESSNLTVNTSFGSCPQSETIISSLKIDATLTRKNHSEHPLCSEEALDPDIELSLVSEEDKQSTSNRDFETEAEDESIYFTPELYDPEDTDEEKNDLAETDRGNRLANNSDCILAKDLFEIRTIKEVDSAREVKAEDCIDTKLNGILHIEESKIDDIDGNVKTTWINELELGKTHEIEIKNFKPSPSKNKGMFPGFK
UniProt Q9Y6E2: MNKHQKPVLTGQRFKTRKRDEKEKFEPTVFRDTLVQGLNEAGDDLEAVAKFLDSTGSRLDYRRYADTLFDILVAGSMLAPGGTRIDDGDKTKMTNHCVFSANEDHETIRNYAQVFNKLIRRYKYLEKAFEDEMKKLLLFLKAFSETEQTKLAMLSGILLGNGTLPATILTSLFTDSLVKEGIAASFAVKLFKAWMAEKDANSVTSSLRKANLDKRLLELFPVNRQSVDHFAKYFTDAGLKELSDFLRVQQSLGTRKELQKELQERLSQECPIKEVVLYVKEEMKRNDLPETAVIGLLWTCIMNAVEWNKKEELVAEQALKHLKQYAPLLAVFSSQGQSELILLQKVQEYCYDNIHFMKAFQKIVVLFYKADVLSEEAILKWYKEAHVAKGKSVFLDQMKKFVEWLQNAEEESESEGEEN

Each target was assayed with ClCC(=O)N[C@H]1CCCc2ccccc12 (assay: log2 mean competition ratio of IA-DTB cysteine labelling (DMSO/compound) (log2 ratio); higher = stronger cysteine engagement by compound). Settings: 50 µM; treatment time: 4 h; cell line lysate: HEK293T.
Method: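 IA-DTB competitive cysteine chemoproteomics in HEK293T RIPA lysate. Lysates were treated with compound 29 or 30 at 50 or 200 µM for 4 h, then IA-DTB (500 µM, 1 h), trypsin-digested, NeutrAvidin-enriched and analysed by diaPASEF. Competition ratio = intensity DMSO / intensity compound (n=4 treated, n=64 DMSO); binding: mean log2 CR ≥ 1 and p ≤ 0.05 plus QC filters. Target is the cysteine site.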

Row | Target | log2 mean competition ratio
1 | C7orf26 C145 (UniProt Q96N11) | 0.0666
2 | C2CD5 C831 (UniProt Q86YS7) | 0.0722
3 | BOD1L1 C2164 (UniProt Q8NFC6) | 0.191
4 | C17orf80 C332 (UniProt Q9BSJ5) | 0.175
5 | CAND2 C240 (UniProt O75155) | -0.223
6 | C9orf72 C5 (UniProt Q96LT7) | 0.139
7 | CAST C328 (UniProt P20810) | 0.423
8 | CBS C109 (UniProt P35520) | -0.278
9 | CAPZA2 C111 (UniProt P47755) | -0.352
10 | BRAP C110 (UniProt Q7Z569) | -0.369
11 | BRD1 C805 | -0.177
12 | CAPN15 C271 (UniProt O75808) | -0.119
13 | BORCS7 C28 (UniProt Q96B45) | 0.0789
14 | C12orf29 C294 (UniProt Q8N999) | 0.306
15 | CAND2 C945 (UniProt O75155) | -0.183
16 | C2CD5 C142 (UniProt Q86YS7) | -0.175
17 | C15orf39 C892 (UniProt Q6ZRI6) | 0.0557
18 | BRCA1 C1251 (UniProt P38398) | -0.0542
19 | BRIP1 C1164 (UniProt Q9BX63) | -0.287
20 | BZW2 C270 (UniProt Q9Y6E2) | 0.938

Same assay, conditions: 200 µM; treatment time: 4 h; cell line lysate: HEK293T

Row | Target | log2 mean competition ratio
21 | C7orf26 C145 (UniProt Q96N11) | 0.0452
22 | C2CD5 C831 (UniProt Q86YS7) | 0.205
23 | BOD1L1 C2164 (UniProt Q8NFC6) | 0.0957
24 | C17orf80 C332 (UniProt Q9BSJ5) | 0.185
25 | CAND2 C240 (UniProt O75155) | -0.0633
26 | C9orf72 C5 (UniProt Q96LT7) | 0.0183
27 | CAST C328 (UniProt P20810) | 0.151
28 | CBS C109 (UniProt P35520) | -0.0308
29 | CAPZA2 C111 (UniProt P47755) | -0.228
30 | BRAP C110 (UniProt Q7Z569) | -0.114
31 | BRD1 C805 | -0.157
32 | CAPN15 C271 (UniProt O75808) | 0.43
33 | BORCS7 C28 (UniProt Q96B45) | 0.0503
34 | C12orf29 C294 (UniProt Q8N999) | 0.246
35 | CAND2 C945 (UniProt O75155) | 0.176
36 | C2CD5 C142 (UniProt Q86YS7) | 0.123
37 | C15orf39 C892 (UniProt Q6ZRI6) | 0.0745
38 | BRCA1 C1251 (UniProt P38398) | -0.209
39 | BRIP1 C1164 (UniProt Q9BX63) | 0.00409
40 | BZW2 C270 (UniProt Q9Y6E2) | 0.724
